In doi:10.1101/2020.09.14.294884 (bioRxiv, 2020):
Results are given in words; binding and its absence hold for the method and conditions named. In cells and extracts the contact can be indirect. Here binding means that the protein was enriched with, or labelled near, the bait; the list need not be complete.

Target: CP43 with C-terminal twin-strep-tag (PsbC-TS) (T. elongatus) (UniProt Q8DIF8)
Test: affinity purification with mass spectrometry

binding: binds
B1: Psb34 (tsl0063) (protein, UniProt Q8DMP8 1-56)
chain: MRYTTDEGGRLNNFAIEPKVYQAQPWTPQQKVRAALLVGGGLLLVAGLVAIAVGVS
